Data as given in PubChem BioAssay AID1508597 (Cure First, 2020).

Aim: 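Survival screen with siRNA in ovarian cancer cells derived from patients, with or without rucaparib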 (primary screen)
System: human ovarian carcinoma lines grown from tumours: OCI-P5x (papillary serous) and OCI-C5x (clear cell)
Reagent: siRNA pool against human genes, 1.25 pmol siRNA per well
Duration: 72 h or 96 h, depending on the cell culture
Challenge: rucaparib 20 µM (about IC30) or vehicle, present until read-out
Detection: 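Luminescent ATP-based viability assay read 72 or 96 h after transfection, depending on culture, given as normalised percent viability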
Scale: viability, normalised: higher = more viable cells remaining
Hit rule: 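a well counts as a hit if its normalised viability is under 80 percent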
Meaning of the calls: active = viability under 80%; inactive = viability 80% or more
Shown is a random part of about 2,100 deposited reagents. 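Calls flag viability under 80% in either arm, not effects specific to rucaparib; the reference for percent is not stated.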 Some reagents were tested in more than one well and are listed for each. Not stated in the record: the 100% reference.

| viability, normalised (%) | Outcome | gene | rucaparib or vehicle | cell line | technical replicate |
| --- | --- | --- | --- | --- | --- |
| 41.7 | active | PRDM9 | Rucaparib | OCI-C5x (clear cell) | 1 |
| 39.5 | active | PRDM9 | Rucaparib | OCI-C5x (clear cell) | 2 |
| 38.8 | active | PRDM9 | Rucaparib | OCI-C5x (clear cell) | 3 |
| 56 | active | PRDM9 | Rucaparib | OCI-P5x (serous) | 1 |
| 54.6 | active | PRDM9 | Rucaparib | OCI-P5x (serous) | 2 |
| 51.6 | active | PRDM9 | Rucaparib | OCI-P5x (serous) | 3 |
| 44 | active | PRDM9 | Vehicle | OCI-C5x (clear cell) | 1 |
| 48.1 | active | PRDM9 | Vehicle | OCI-C5x (clear cell) | 2 |
| 33.6 | active | PRDM9 | Vehicle | OCI-C5x (clear cell) | 3 |
| 69.2 | active | PRDM9 | Vehicle | OCI-P5x (serous) | 1 |
| 85.3 | inactive | PRDM9 | Vehicle | OCI-P5x (serous) | 2 |
| 145 | inactive | PRDM9 | Vehicle | OCI-P5x (serous) | 3 |
| 64.9 | active | EPHB2 | Rucaparib | OCI-C5x (clear cell) | 1 |
| 57.5 | active | EPHB2 | Rucaparib | OCI-C5x (clear cell) | 2 |
| 59.3 | active | EPHB2 | Rucaparib | OCI-C5x (clear cell) | 3 |
| 94 | inactive | EPHB2 | Rucaparib | OCI-P5x (serous) | 1 |
| 80.1 | inactive | EPHB2 | Rucaparib | OCI-P5x (serous) | 2 |
| 97.1 | inactive | EPHB2 | Rucaparib | OCI-P5x (serous) | 3 |
| 64.6 | active | EPHB2 | Vehicle | OCI-C5x (clear cell) | 1 |
| 65.1 | active | EPHB2 | Vehicle | OCI-C5x (clear cell) | 2 |
| 62.4 | active | EPHB2 | Vehicle | OCI-C5x (clear cell) | 3 |
| 94.9 | inactive | EPHB2 | Vehicle | OCI-P5x (serous) | 1 |
| 79.8 | active | EPHB2 | Vehicle | OCI-P5x (serous) | 2 |
| 75.6 | active | EPHB2 | Vehicle | OCI-P5x (serous) | 3 |
| 47.3 | active | AKAP1 | Rucaparib | OCI-C5x (clear cell) | 1 |
| 35.7 | active | AKAP1 | Rucaparib | OCI-C5x (clear cell) | 2 |
| 45.1 | active | AKAP1 | Rucaparib | OCI-C5x (clear cell) | 3 |
| 74.6 | active | AKAP1 | Rucaparib | OCI-P5x (serous) | 1 |
| 83.9 | inactive | AKAP1 | Rucaparib | OCI-P5x (serous) | 2 |
| 71.4 | active | AKAP1 | Rucaparib | OCI-P5x (serous) | 3 |
| 44.5 | active | AKAP1 | Vehicle | OCI-C5x (clear cell) | 1 |
| 39.9 | active | AKAP1 | Vehicle | OCI-C5x (clear cell) | 2 |
| 44.3 | active | AKAP1 | Vehicle | OCI-C5x (clear cell) | 3 |
| 58.3 | active | AKAP1 | Vehicle | OCI-P5x (serous) | 1 |
| 57.1 | active | AKAP1 | Vehicle | OCI-P5x (serous) | 2 |
| 58.3 | active | AKAP1 | Vehicle | OCI-P5x (serous) | 3 |
| 41.7 | active | PANK3 | Rucaparib | OCI-C5x (clear cell) | 1 |
| 59.4 | active | PANK3 | Rucaparib | OCI-C5x (clear cell) | 2 |
| 47.7 | active | PANK3 | Rucaparib | OCI-C5x (clear cell) | 3 |
| 67.5 | active | PANK3 | Rucaparib | OCI-P5x (serous) | 1 |
| 58.3 | active | PANK3 | Rucaparib | OCI-P5x (serous) | 2 |
| 59.1 | active | PANK3 | Rucaparib | OCI-P5x (serous) | 3 |
| 38 | active | PANK3 | Vehicle | OCI-C5x (clear cell) | 1 |
| 52.8 | active | PANK3 | Vehicle | OCI-C5x (clear cell) | 2 |
| 26.3 | active | PANK3 | Vehicle | OCI-C5x (clear cell) | 3 |
| 61.5 | active | PANK3 | Vehicle | OCI-P5x (serous) | 1 |
| 48.2 | active | PANK3 | Vehicle | OCI-P5x (serous) | 2 |
| 39 | active | PANK3 | Vehicle | OCI-P5x (serous) | 3 |
| 64.2 | active | PRMT1 | Rucaparib | OCI-C5x (clear cell) | 1 |
| 50.9 | active | PRMT1 | Rucaparib | OCI-C5x (clear cell) | 2 |
| 40.7 | active | PRMT1 | Rucaparib | OCI-C5x (clear cell) | 3 |
| 48.7 | active | PRMT1 | Rucaparib | OCI-P5x (serous) | 1 |
| 42.5 | active | PRMT1 | Rucaparib | OCI-P5x (serous) | 2 |
| 48.7 | active | PRMT1 | Rucaparib | OCI-P5x (serous) | 3 |
| 74.8 | active | PRMT1 | Vehicle | OCI-C5x (clear cell) | 1 |
| 66.3 | active | PRMT1 | Vehicle | OCI-C5x (clear cell) | 2 |
| 64.7 | active | PRMT1 | Vehicle | OCI-C5x (clear cell) | 3 |
| 72.4 | active | PRMT1 | Vehicle | OCI-P5x (serous) | 1 |
| 74.9 | active | PRMT1 | Vehicle | OCI-P5x (serous) | 2 |
| 97.3 | inactive | PRMT1 | Vehicle | OCI-P5x (serous) | 3 |
| 63.9 | active | RAD54B | Rucaparib | OCI-C5x (clear cell) | 1 |
| 60.9 | active | RAD54B | Rucaparib | OCI-C5x (clear cell) | 1 |
| 43.3 | active | RAD54B | Rucaparib | OCI-C5x (clear cell) | 2 |
| 50.5 | active | RAD54B | Rucaparib | OCI-C5x (clear cell) | 2 |
| 57.1 | active | RAD54B | Rucaparib | OCI-C5x (clear cell) | 3 |
| 65.5 | active | RAD54B | Rucaparib | OCI-C5x (clear cell) | 3 |
| 62.5 | active | RAD54B | Rucaparib | OCI-P5x (serous) | 1 |
| 95.5 | inactive | RAD54B | Rucaparib | OCI-P5x (serous) | 1 |
| 105 | inactive | RAD54B | Rucaparib | OCI-P5x (serous) | 2 |
| 56.1 | active | RAD54B | Rucaparib | OCI-P5x (serous) | 2 |
| 56.8 | active | RAD54B | Rucaparib | OCI-P5x (serous) | 3 |
| 85 | inactive | RAD54B | Rucaparib | OCI-P5x (serous) | 3 |
| 48.9 | active | RAD54B | Vehicle | OCI-C5x (clear cell) | 1 |
| 53.9 | active | RAD54B | Vehicle | OCI-C5x (clear cell) | 1 |
| 43.5 | active | RAD54B | Vehicle | OCI-C5x (clear cell) | 2 |
| 76 | active | RAD54B | Vehicle | OCI-C5x (clear cell) | 2 |
| 49 | active | RAD54B | Vehicle | OCI-C5x (clear cell) | 3 |
| 57 | active | RAD54B | Vehicle | OCI-C5x (clear cell) | 3 |
| 55.2 | active | RAD54B | Vehicle | OCI-P5x (serous) | 1 |
| 77.8 | active | RAD54B | Vehicle | OCI-P5x (serous) | 1 |
| 76.6 | active | RAD54B | Vehicle | OCI-P5x (serous) | 2 |
| 63.1 | active | RAD54B | Vehicle | OCI-P5x (serous) | 2 |
| 73.7 | active | RAD54B | Vehicle | OCI-P5x (serous) | 3 |
| 83.8 | inactive | RAD54B | Vehicle | OCI-P5x (serous) | 3 |

A run of entries from the list above:
| viability, normalised (%) | Outcome | gene | rucaparib or vehicle | cell line | technical replicate |
| --- | --- | --- | --- | --- | --- |
| 62.4 | active | EPHB2 | Vehicle | OCI-C5x (clear cell) | 3 |
| 94.9 | inactive | EPHB2 | Vehicle | OCI-P5x (serous) | 1 |
| 79.8 | active | EPHB2 | Vehicle | OCI-P5x (serous) | 2 |
| 75.6 | active | EPHB2 | Vehicle | OCI-P5x (serous) | 3 |
| 47.3 | active | AKAP1 | Rucaparib | OCI-C5x (clear cell) | 1 |
| 35.7 | active | AKAP1 | Rucaparib | OCI-C5x (clear cell) | 2 |
| 45.1 | active | AKAP1 | Rucaparib | OCI-C5x (clear cell) | 3 |
| 74.6 | active | AKAP1 | Rucaparib | OCI-P5x (serous) | 1 |
| 83.9 | inactive | AKAP1 | Rucaparib | OCI-P5x (serous) | 2 |
| 71.4 | active | AKAP1 | Rucaparib | OCI-P5x (serous) | 3 |
